This note sets out measurements from PubChem BioAssay AID1347426 (Functional Genomics Laboratory (NCATS/FGL), 2020).

Among all 31,000 sequences or so, about 1,400 (4.5%) were called active.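 How the source made its calls: active means median seed-adjusted z-score above 1 or below -1; inactive means the rest.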 Some of the results follow.

This experiment is described as follows: Novel Modifiers of Survival Motor Neuron (SMN) Protein: Gene Identification via Genome-wide siRNA Screen.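 Further: luminescence tracks full-length SMN protein made from the SMN2 reporter.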 The note with it: HEK293T SMN2-luciferase reporter, siRNA knockdown, 72 h; actives lie on both sides. In short, it runs like this: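 HEK293T cells stably carrying an SMN2 promoter/splicing cassette–luciferase reporter were reverse-transfected with 1 pmol siRNA per well (druggable-genome library, 3 siRNAs per gene) and grown 72 h at 37 °C. Luminescence, normalized to negative-control siRNA and log10-transformed, was scored as MAD.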
(In a reporter assay the amount or activity of a reporter protein is the signal.)
As for GGAUGAUUGGAGGACCUAUTT against ALDH7A1, the median seed-adjusted z-score is inactive: -0.406.

Turning to CGAGUGCUCCAGUUUAAGATT against GALK2, the median seed-adjusted z-score is inactive: 0.

GCCUUCCAUCAGUCGGAUATT against G6PD: the median seed-adjusted z-score is inactive: 0.593. For CAUAAUAACCGUUACCAAATT against CSF1R the value was inactive: 0.38; for GGAUCAAUGAGUUCUCCAUTT against FMOD, active: -1.32.

Turning to GACUUCCGCAGAAAAGUAATT against PTPRN2, the median seed-adjusted z-score was inactive: -0.104. In the case of GUGAGAAACUGGAUAAGAATT against ATF4, the median seed-adjusted z-score was inactive: 0.

On to GGCUGAAAGUCGACAAGGATT against PANK4, for which the median seed-adjusted z-score was inactive: 0.00068. As for GGGCAUGGGUUUUAAUCGATT against PYGO1, the median seed-adjusted z-score is active: -1.23. For GGUGAAGAGAGGUUUUGAATT against 7-Sep the value was inactive: -0.00715.

On to GGGCUUUUCCGGAACCUGATT against TRIM46, for which the median seed-adjusted z-score is inactive: 0.034. The figure for GGCUAUGAUUCAGUGCAAATT against ATP6V1H is inactive: 0.146; for GCAACGCAAGGGUGAGAAATT against SLC25A44 it is inactive: -0.0685; for CCAAAGCCCUUCCAAGACATT against ZBTB7C it is inactive: 0.447. CUAUGGUCCUAGUAGGAAATT against KRAS: the median seed-adjusted z-score was inactive: -0.0469.

With CUAUCACCAUGGUUACGAATT against ARHGAP26, the median seed-adjusted z-score was inactive: 0.34. For UGGUUUCAAGGAACCGAAATT against DBNL the value was inactive: 0.398; for CCUUCUUAAGAGUACCUGATT against SLC2A4, inactive: 0.0588. The figure for AAAUGGACCCUUUUCAUUATT against FXYD6 is inactive: -0.214; for GCACAGAGGCCGACAAGAATT against THOP1 it is inactive: 0.643; for GGCAUACUAAAUAAGCUUATT against EIF4G2 it is inactive: -0.386. The figure for GGCCUUAGAUGAGUCCCUATT against PABPN1 is inactive: -0.757; for GGAGCAAGGUGAAAUACAUTT against NTHL1 it is inactive: 0.364.

Turning to GGAGGAGCAUCUCACAAUATT against XYLB, the median seed-adjusted z-score is inactive: -0.414. For CUGACAGUGUGGAUCGAUATT against COL12A1 the value was inactive: 0.00422. The figure for GCAGAAACCCAGAUCGAGATT against PLAT is inactive: 0.246; for GCUUACUCGGGUGCUCUUATT against ZDHHC16 it is inactive: 0.0194. The figure for AGAGGAAGUUGAAUUAUUATT against BRD3 is inactive: 0.633; for GGCACGAGAUGAAACGAAATT against STX3 it is inactive: 0.686. As to CCAUGGUGACUUACCCUAUTT against ZC3H10, the median seed-adjusted z-score is inactive: -0.79. With UCUUUUGCCUCCUUAAAUATT against PRPH, the median seed-adjusted z-score is inactive: 0.

As to GAAGGUUCCUGAUGCUAUATT against PHF12, the median seed-adjusted z-score was inactive: 0.784. Turning to CGAUACCGGGAAGACCUGATT against PSMB6, the median seed-adjusted z-score is inactive: -0.579.

As to CUGCAUCAGCGGUCCUCUATT against HAS1, the median seed-adjusted z-score is inactive: -0.416. The figure for GCAUGAUAAAGCUCAAAUATT against PHF6 is inactive: -0.268. The figure for GGUUUUUGAUCUUUGCGUATT against NR2C1 is inactive: 0.386; for GUUCUGCGCUAUACCAAUATT against PEPD it is inactive: -0.00401.

Turning to ACACUUUGGGCAUCGAAUATT against GNAO1, the median seed-adjusted z-score was inactive: 0.233. As to CAGUCUUGGUGGACCUAGATT against TUBB1, the median seed-adjusted z-score is inactive: -0.289. The figure for GGCACGAUACCUAAAAGAATT against NEFL is inactive: 0.305; for GAACAGAUCCGGAAGAAGATT against NR1H2 it is inactive: 0.069. The figure for GGAAAGAAAGUGUAUGUCATT against SAG is inactive: 0; for CGCAUACUCUCGCCCUGUATT against ZNHIT2 it is inactive: -0.339. For AGUGCGCCCUGAUAUGACATT against RBCK1 the value was inactive: 0.479; for GCCUCCGAGUUCUACGAGATT against GPSM1, inactive: -0.275. Consider GGACUAUACUGAGAGCCUATT against USP22, for which the median seed-adjusted z-score was inactive: 0. The figure for GUUUGAGGCUGAUAAAACATT against EDA2R is inactive: 0.424; for GCUUCAGAGUUCUCUAAAATT against BTF3L4 it is inactive: 0.143. For GGAUGUUUCCUACCUAUAUTT against FOLR1 the value was active: -1.31; for UCCAAUCCCUCACCACUCATT against LIMS2, inactive: 0; for CAGUCUAACUCCUAUAUCATT against KRTAP2-2, inactive: -0.212. The figure for ACAUUGAUACGUCCAUGUATT against SERTAD2 is inactive: 0.43; for GCUGGUUUCUGAUCGAUAUTT against TDRD5 it is inactive: -0.0961. On to CGACGACAGCUGAAGCAGATT against ADORA2A, for which the median seed-adjusted z-score is inactive: 0. As for GUAACUUCGUCAAGUCUAATT against GK2, the median seed-adjusted z-score is inactive: 0. Turning to CGGCGACAGUAGGAGGAAATT against KCNK13, the median seed-adjusted z-score was inactive: -0.0924. The figure for GCUGGUUGCUUGUACAACATT against LRP1 is inactive: -0.781. For the sequence GGCUUGGAUUCAGAUCUCATT against SERPINF1, the median seed-adjusted z-score is inactive: -0.145. The figure for GGAGAAUGGAUACAUCAAUTT against RGL2 is inactive: 0.174; for GUACGACCGUAUUCUCCGATT against WNT1 it is inactive: 0; for GCAGUGACCUUCAAAGUGATT against PTPRN2 it is inactive: -0.104. The figure for GAGACGAGCUUUAAUGACATT against SH3BP4 is inactive: -0.0622; for CUUUGAUAAUGGAGCGAGATT against PILRA it is inactive: 0.0834. For ACACGGAGGAUGAAGCUAATT against CYC1 the value was inactive: -0.47. Regarding AGAUGAAGUUGGGAAGGGUTT against LTBR, the median seed-adjusted z-score is inactive: 0. For UCAGCUCCAUUAAUAGAAUTT against PAX8 the value was inactive: 0.

Consider GUGCUCGAAUGAUAACUAUTT against RAB2A, for which the median seed-adjusted z-score is inactive: -0.038. For GGUUGCCCAUCUUACUCUATT against ZNF470 the value was active: -1.26; for CAGCAACCAGAGGAGUAUATT against TCF20, inactive: 0.392. For ACAAGUUCAUCACACGCUATT against STK25, the median seed-adjusted z-score was inactive: -0.0703.

GCCUAGACCUCUUCGCUUUTT against PASK: the median seed-adjusted z-score is inactive: 0.

For the sequence GAAGCAUCGGGAAAGCAAATT against ZNF684, the median seed-adjusted z-score was inactive: 0.189. For CUGCAAGACUUGGAGCUAATT against HDLBP the value was active: -1.18. The figure for UCAAAGUGUUCGACACUGATT against MYLC2PL is inactive: -0.7. The figure for GGACAAGACUCUCAAGAUUTT against MGLL is inactive: 0.288; for GGUCUAGGGAGGUUGUUCATT against TUBG2 it is inactive: 0. CCAUUGGAGUGGACUUCGATT against RAB34: the median seed-adjusted z-score was inactive: 0.342. On to GCUCAGCUCUACCUGCAUATT against CYP4A22, for which the median seed-adjusted z-score was inactive: -0.479. The figure for AAAAACUCGUAUUUCUAAUTT against ZNF701 is inactive: -0.0161; for CUCAAGAUCUGGUUAGUCUTT against DDR1 it is inactive: -0.166. The figure for UGACUUUGCUCAUACCACATT against IHPK3 is inactive: -0.173; for GCAAGACCUGGUCAGUAUATT against NOX4 it is inactive: -0.246. Consider GCCUUUGGUUAACACCUAUTT against MYBPC1, for which the median seed-adjusted z-score is inactive: 0.295. The figure for GCAUUGUACUUGCCUCUUUTT against KCNS1 is inactive: -0.167; for GGAGUCAACUCACCACCAUTT against SLC17A4 it is inactive: 0.262. Regarding GGACAACAACGACCACCGATT against PPP1R3D, the median seed-adjusted z-score is inactive: 0.

As to GGAGAGGAAUCAUCUUGGATT against ZNF557, the median seed-adjusted z-score is inactive: -0.197. The figure for GCACAUCAACAUCAAGCUATT against LRRK1 is inactive: 0.257; for GGACUUCAAUGACAGAAGATT against KHSRP it is inactive: -0.856; for CCCUACCAACAUUAAGUAUTT against CLDN7 it is inactive: 0.0208. The figure for CCCUGGUAGUCAAAAACGATT against PHKB is inactive: -0.142.

For GCAGAUCAGCAAAUACUGUTT against IPPK, the median seed-adjusted z-score was inactive: 0.389. For UGCCUUAUCUGGAAGCAAATT against ERMAP, the median seed-adjusted z-score is inactive: -0.276. Turning to GCACUGUAGUCAGAGAUGATT against KCNMB3, the median seed-adjusted z-score is inactive: 0.513.

Regarding GCAAGACAACCAUUCUGUATT against ARF4, the median seed-adjusted z-score is inactive: 0.346.

GGAUACCUACCACAAGGUUTT against NPHS2: the median seed-adjusted z-score was inactive: -0.857. The figure for GCAAUAUUUCGAGCAGUUUTT against MSI2 is inactive: 0.582; for GGAUAAUAGACAGCAAGUUTT against AKAP13 it is inactive: 0.654; for GAGCUUUACUUGUCUGCGATT against TYRO3 it is inactive: -0.0161. UGAAGAUUGUCGAACAGGATT against GABRG2: the median seed-adjusted z-score is inactive: -0.479.

Take GAAUCAGAUUUGGACCAGATT against CDH22: the median seed-adjusted z-score was inactive: -0.57. The figure for GACCCAAAGCGGCAGCAAATT against KLRC2 is inactive: -0.472. The figure for GGAAAGCUUUGAAGGGCAATT against PSMA2 is inactive: -0.54; for GGUUUGCUCUCUUACUACATT against OSBP2 it is inactive: -0.568; for CUUUAUGUAUUUUCGCAUATT against ALDH3A2 it is inactive: -0.0751. The figure for CCAGUGCUCCCGAAACUGATT against KRTAP5-5 is active: -1.07.

As for GCUCUGUCGAGGUACCAGATT against RAB7B, the median seed-adjusted z-score was inactive: 0. The figure for GAGCGAACAUUGAGACGUATT against ARID4A is inactive: 0.601.
